Assay [1] deals with β2 integrin (mouse (endogenous in BMDMs)) (UniProt P11835). The assay is described as follows: co-IP; BMDMs with or without SHP2 deletion, treated with PMA (100 ng/ml, 15 minutes), Western blot.
Assay [2] concerns the target T1, SIRPα (endogenous in mouse tumor-infiltrating macrophages) (mouse (endogenous in TIMs)) (UniProt P97797).
T1 sequence: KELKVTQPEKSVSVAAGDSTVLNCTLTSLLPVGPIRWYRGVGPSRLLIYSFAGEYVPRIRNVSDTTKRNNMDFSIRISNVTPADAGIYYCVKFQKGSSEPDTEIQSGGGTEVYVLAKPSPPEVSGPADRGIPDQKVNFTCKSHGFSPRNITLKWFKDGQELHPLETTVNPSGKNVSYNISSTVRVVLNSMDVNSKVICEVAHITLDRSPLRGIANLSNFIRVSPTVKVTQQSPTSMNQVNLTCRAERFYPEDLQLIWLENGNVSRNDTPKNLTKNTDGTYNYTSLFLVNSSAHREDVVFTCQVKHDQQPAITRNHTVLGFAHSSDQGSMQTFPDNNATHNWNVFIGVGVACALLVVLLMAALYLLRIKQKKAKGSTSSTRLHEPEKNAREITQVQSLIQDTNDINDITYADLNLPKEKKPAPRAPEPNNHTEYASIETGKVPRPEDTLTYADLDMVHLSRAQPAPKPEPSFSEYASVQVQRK
The assay is described as follows: proximity ligation; TIMs isolated from MC38 and CT26 s.c. tumors; signal visualized and quantified as discrete spots.

By UniProt entry, the sequences of proteins in these tests, tags left out. Residues count along the entry.
UniProt P11835, residues 24-771: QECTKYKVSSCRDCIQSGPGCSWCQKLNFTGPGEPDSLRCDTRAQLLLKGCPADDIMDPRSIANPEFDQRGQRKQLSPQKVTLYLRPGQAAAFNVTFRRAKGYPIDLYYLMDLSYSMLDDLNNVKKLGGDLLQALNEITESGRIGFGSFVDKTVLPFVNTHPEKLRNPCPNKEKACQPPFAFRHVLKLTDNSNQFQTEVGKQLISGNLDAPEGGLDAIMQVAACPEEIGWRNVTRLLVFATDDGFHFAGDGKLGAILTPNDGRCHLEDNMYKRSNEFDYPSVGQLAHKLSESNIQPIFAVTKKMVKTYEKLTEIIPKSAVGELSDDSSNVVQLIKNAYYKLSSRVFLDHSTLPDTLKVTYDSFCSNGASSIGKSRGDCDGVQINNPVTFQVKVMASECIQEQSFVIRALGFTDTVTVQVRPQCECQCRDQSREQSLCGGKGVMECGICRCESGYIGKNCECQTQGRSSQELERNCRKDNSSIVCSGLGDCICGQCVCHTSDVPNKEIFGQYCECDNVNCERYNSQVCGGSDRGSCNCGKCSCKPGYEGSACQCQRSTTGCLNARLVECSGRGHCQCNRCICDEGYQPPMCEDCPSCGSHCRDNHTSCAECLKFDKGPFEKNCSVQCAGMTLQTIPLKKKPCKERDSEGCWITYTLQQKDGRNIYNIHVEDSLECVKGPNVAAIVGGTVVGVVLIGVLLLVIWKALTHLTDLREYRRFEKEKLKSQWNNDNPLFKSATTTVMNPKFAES
UniProt Q8K1B8: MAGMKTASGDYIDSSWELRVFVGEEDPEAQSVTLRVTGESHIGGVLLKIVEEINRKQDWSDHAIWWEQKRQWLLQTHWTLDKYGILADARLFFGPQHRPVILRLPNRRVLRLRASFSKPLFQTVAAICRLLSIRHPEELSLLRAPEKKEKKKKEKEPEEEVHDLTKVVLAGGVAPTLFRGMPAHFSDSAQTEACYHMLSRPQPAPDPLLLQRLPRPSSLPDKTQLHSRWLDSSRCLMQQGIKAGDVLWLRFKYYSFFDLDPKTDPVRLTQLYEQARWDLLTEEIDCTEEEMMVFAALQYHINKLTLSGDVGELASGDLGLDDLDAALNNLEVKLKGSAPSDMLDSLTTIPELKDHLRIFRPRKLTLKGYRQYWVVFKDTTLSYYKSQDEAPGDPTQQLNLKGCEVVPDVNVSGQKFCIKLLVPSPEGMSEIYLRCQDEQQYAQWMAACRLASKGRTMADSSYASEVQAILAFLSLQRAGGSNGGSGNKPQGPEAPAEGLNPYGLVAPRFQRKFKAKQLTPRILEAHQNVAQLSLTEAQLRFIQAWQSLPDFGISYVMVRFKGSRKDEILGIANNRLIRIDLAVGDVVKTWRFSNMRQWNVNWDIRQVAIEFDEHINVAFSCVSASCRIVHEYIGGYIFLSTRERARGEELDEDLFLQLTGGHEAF
UniProt P29351: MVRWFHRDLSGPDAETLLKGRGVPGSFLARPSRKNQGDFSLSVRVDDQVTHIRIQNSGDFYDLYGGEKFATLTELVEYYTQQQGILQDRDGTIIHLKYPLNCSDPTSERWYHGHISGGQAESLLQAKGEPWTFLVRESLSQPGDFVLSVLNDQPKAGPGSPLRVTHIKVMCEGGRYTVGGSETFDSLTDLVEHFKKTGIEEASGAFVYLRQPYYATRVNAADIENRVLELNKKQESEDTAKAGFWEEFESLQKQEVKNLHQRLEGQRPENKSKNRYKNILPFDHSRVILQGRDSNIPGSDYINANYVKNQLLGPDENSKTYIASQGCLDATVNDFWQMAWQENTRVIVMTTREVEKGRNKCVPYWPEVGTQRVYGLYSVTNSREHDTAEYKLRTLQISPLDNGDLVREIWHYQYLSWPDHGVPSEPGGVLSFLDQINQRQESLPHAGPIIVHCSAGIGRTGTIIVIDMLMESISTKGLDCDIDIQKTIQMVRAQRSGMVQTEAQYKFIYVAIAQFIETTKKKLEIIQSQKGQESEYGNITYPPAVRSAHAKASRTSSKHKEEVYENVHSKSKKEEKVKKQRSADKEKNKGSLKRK

Results are given in words; binding and its absence hold for the method and conditions named. In cells and extracts the contact can be indirect. Some entries that bind do so weakly or less than the wild type.

Among the data in article PMC9927946 are binding values, retold here.

For the substance Kindlin3 (from UniProt Q8K1B8 1-665), the binding entry in assay [1] is listed as “binds”.
Take “SHP1 (endogenous in mouse tumor-infiltrating macrophages) (from UniProt P29351 1-595) (enzyme)”: the binding entry in assay [2] is on record as “binds”.
